Article doi:10.1101/559005
Results are given in words; binding and its absence hold for the method and conditions named. Blank lines part the entries; values can stand above or below the substance they belong to.

Sequences of proteins named here, by UniProt entry; tags and fusion partners are left off. A change or cut given only in a name is not applied to a line headed by its entry. Residues count along the entry.
UniProt P32597, 1250-1359: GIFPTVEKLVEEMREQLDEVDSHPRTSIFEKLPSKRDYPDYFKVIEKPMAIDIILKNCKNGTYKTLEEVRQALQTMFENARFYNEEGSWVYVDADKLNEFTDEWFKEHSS

Legend:
Assay in all cases: SEC
[1] = target: ScSth1p Ser1276Glu mutant bromodomain (S. cerevisiae) (UniProt P32597)
[2] = target: ScSth1p Trp1338Gln mutant bromodomain (S. cerevisiae) (UniProt P32597)
[3] = target: ScSth1p Tyr1290Ala/Asn1333Ala mutant bromodomain (S. cerevisiae) (UniProt P32597)
[4] = target: ScSth1p bromodomain (residues 1250-1359), wild type (S. cerevisiae) (UniProt P32597)

- binding [1]: no binding
Substance: ScSth1p Ser1276Glu mutant bromodomain (from UniProt P32597 1250-1359) (domain or fragment)

- binding [2]: no binding
Substance: ScSth1p Trp1338Gln mutant bromodomain (from UniProt P32597 1250-1359) (domain or fragment)

- binding [3]: no binding
Substance: ScSth1p Tyr1290Ala/Asn1333Ala mutant bromodomain (from UniProt P32597 1250-1359) (domain or fragment)

- binding [4]: no binding
Substance: ScSth1p bromodomain (residues 1250-1359), wild type (from UniProt P32597 1250-1359) (domain or fragment)
